These are yes or no findings as the source states them, for the method shown.
Biological target: Arabidopsis thaliana SOBIR1 ectodomain (residues 1-270) (Arabidopsis thaliana) (UniProt Q9SKB2)
Experiment: crystal structure

binding: no binding
B1: Arabidopsis thaliana SOBIR1 ectodomain (residues 1-270) (domain or fragment, UniProt Q9SKB2 32-270)
chain: VEWLDIDSSDLKALQVIETELGVNSQRSSASDVNPCGRRGVFCERRHSATTGEYVLRVTRLVYRSRSLTGTISPVIGMLSELKELTLSNNQLVNAVPVDILSCKQLEVLDLRKNRFSGQIPGNFSSLSRLRILDLSSNKLSGNLNFLKNLRNLENLSVANNLFSGKIPEQIVSFHNLRFFDFSGNRYLEGPAPVMSSIKLQTSPHQTRHILAETPTSSPTNKPNNSTTSKAPKGAPKPG
modifications: N-glycan attached to asparagine 154
